Results as given in paper PMC6461108 (Chemical Science, 2019).

Experiment: general procedure: Fmoc solid-phase peptide synthesis; Rink Amide MBHA resin (loading capacity 0.36 mmol g-1) for S-peptide; DIC / Oxyma pure
Conditions: whole synthesis, NMR, scale of the general procedure 0.1 mmol

## H2N-[O -4-Cl-Bn-(3-HABA)]-Phe-[O-iPr-(2-HABA)]-Gly-CO 2H
  purity (crude or final not stated): > 95%
